Values of other authors in patent publication US20170252311A1, “SPHINGOSINE KINASE INHIBITORS AND CERAMIDE FOR MAINTENANCE THERAPY OF GLIOBLASTOMA” (SignPath Pharma Inc., priority 2016, published 2017).
At least one structure is not confirmed: it was looked up by name or label, or the drawing left a doubt.

Experiments:
[1] = tested on: A172, G28 and U87MG cell lines
SK (sphingosine kinase) = conditions: arrow down = decrease, arrow up = increase (not defined in patent)
[2] = tested on: T98G, A172, U87MG, U373MG glioma cell lines
[3] = tested on: Brain tumor stem cells (BTSCs) from human GBM tissue (cell lines BTSC9, STSC44 and BTSC57)

Compound: CCCCCCCCc1ccc(CCC(N)(CO)CO)cc1 [Fingolimod, fingolimod]
- efficacy of TMZ (BTSC xenografts): mouse survival. Augmented
- mouse survival (BTSC xenografts; single agent): Increased
- anti-proliferation effect compared with TMZ [1]: Much greater anti-proliferation
- Sphingolipid Enzymes Affected: SK (SK (sphingosine kinase)): ↓SK
- tyrosine dephosphorylation of focal adhesion kinase (FAK) [2]: caspse-6. Caused tyrosine
- extracellular signal-regulated kinases [3]: Inactivation of extracellular
